According to publication PMC9266683:
These are yes or no findings as the source states them, for the method shown. For some assays here: In cells and extracts the contact can be indirect. Some results given as binding are weak or reduced against the parent protein; the word gives no strength. Tags and fused reporters may be left off the sequences shown.

Chains of the proteins cited; added tags and fusions are not shown. Lines headed by an entry give the natural chain unless they say otherwise; changes in a name come on top. Residues count along the entry.
UniProt O48686, residues 1-850: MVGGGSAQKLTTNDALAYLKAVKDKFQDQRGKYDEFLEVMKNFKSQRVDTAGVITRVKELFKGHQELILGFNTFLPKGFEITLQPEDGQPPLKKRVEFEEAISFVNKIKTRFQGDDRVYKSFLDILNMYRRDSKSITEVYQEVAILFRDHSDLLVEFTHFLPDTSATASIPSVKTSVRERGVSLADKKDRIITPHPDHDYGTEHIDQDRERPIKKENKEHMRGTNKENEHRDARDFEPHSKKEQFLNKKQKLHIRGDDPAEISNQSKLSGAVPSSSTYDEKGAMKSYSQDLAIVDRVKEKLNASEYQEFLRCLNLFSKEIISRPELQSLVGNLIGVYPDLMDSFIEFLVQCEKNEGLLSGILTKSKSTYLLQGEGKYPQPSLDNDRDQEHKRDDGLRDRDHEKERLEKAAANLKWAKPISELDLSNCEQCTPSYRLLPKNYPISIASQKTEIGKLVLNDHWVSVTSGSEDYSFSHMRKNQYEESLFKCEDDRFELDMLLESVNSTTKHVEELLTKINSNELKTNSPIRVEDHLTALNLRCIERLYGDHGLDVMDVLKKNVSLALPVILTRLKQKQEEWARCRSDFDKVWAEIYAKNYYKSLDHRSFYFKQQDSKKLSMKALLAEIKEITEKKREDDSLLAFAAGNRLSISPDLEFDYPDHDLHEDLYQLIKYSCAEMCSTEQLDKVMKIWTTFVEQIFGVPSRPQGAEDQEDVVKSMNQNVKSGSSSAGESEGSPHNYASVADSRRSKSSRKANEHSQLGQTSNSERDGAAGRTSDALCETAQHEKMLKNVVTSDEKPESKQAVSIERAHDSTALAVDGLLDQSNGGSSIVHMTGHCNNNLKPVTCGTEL
UniProt Q9XIE1, residues 1-250: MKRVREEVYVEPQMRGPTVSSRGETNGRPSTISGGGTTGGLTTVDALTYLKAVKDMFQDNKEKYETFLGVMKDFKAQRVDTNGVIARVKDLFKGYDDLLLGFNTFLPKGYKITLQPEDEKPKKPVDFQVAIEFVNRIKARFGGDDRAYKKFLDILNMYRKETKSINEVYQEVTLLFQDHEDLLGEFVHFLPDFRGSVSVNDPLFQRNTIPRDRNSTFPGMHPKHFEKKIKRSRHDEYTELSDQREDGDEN
UniProt Q9XIK6: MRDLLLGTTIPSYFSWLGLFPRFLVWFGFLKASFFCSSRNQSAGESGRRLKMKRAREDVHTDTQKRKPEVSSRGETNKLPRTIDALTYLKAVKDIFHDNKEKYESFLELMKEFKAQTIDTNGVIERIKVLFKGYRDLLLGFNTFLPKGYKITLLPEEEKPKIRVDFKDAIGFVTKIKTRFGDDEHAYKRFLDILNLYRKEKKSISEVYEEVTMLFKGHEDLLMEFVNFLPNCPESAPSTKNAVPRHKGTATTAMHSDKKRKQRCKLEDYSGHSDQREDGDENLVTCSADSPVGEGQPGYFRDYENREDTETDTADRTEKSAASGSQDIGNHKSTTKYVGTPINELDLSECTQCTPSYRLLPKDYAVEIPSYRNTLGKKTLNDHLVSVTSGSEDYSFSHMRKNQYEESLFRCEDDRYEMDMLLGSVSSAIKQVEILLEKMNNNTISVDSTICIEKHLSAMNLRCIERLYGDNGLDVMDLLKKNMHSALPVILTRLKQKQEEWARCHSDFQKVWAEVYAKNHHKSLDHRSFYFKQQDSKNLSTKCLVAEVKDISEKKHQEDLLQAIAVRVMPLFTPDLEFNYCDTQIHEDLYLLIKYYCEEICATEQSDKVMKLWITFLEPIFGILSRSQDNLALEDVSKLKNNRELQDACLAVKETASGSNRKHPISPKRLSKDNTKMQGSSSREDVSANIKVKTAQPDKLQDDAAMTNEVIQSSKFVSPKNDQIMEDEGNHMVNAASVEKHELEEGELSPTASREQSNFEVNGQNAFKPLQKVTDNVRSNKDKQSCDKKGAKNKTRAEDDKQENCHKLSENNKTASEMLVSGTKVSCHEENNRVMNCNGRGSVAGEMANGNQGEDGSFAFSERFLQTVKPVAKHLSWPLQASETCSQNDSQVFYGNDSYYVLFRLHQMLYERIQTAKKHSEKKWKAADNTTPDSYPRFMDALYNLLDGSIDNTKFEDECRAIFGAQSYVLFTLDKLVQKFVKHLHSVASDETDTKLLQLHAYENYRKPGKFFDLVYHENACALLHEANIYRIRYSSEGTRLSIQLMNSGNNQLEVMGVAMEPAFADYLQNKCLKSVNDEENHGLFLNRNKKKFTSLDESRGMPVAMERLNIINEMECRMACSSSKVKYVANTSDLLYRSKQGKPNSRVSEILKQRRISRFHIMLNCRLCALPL

How the values were obtained:
[1] = target: SNL3-ΔC (aa 1–850), fused to the GAL4 binding domain (Arabidopsis thaliana) (UniProt O48686); assay: two-hybrid; Matchmaker GAL4 two-hybrid system 3, yeast AH109; VAL1 constructs in pGADT7 (AD), SNL constructs in pGBKT7 (BD); growth on medium lacking Trp, Leu, His and Ade, 3-5 d at 30 °C
[2] = target: T1, SNL1, intact, fused to the C-terminal half of luciferase (cLUC) (Arabidopsis thaliana) (UniProt Q9SRH9); assay: split reporter; firefly luciferase complementation imaging (LCI); VAL1 constructs fused to nLUC, SNL constructs to cLUC; co-infiltrated into N. benthamiana leaves, 22 °C for 48 h, imaged with a CCD
T1 sequence: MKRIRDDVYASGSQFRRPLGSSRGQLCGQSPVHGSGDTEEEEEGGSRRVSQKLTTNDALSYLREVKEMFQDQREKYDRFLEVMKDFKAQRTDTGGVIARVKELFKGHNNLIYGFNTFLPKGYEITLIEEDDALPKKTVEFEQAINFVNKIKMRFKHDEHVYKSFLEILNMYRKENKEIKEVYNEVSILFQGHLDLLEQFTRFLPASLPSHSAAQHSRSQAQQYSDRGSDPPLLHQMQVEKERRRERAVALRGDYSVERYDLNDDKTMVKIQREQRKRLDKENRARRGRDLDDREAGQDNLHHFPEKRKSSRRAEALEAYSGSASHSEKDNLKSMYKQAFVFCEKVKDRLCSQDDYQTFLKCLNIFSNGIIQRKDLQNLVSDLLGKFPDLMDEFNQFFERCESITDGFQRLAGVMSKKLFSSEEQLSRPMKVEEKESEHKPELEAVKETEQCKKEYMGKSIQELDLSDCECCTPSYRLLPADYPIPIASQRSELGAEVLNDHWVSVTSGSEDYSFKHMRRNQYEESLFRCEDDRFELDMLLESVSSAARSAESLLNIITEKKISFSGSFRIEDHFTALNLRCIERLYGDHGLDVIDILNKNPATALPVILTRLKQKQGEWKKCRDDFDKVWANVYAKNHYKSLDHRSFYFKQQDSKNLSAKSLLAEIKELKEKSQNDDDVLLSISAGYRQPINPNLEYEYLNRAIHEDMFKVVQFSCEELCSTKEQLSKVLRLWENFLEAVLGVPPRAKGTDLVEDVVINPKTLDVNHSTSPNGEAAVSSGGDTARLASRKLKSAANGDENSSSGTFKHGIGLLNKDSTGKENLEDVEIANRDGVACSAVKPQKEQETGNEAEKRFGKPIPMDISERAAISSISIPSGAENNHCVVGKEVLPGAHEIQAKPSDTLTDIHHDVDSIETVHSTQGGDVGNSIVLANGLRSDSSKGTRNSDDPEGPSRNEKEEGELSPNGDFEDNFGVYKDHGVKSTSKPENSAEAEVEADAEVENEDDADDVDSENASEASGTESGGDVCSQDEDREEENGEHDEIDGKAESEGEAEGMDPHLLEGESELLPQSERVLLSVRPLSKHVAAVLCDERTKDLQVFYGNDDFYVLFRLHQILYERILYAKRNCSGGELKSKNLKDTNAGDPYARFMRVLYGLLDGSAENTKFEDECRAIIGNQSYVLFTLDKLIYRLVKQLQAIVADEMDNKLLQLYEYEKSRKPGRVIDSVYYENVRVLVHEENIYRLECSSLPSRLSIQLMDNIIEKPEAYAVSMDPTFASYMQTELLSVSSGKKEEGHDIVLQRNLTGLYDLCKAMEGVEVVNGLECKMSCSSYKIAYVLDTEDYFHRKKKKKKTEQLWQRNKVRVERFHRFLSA

[3] = target: T2, SNL1-PAH (aa 1–450), fused to the C-terminal half of luciferase (cLUC) (Arabidopsis thaliana) (UniProt Q9SRH9); assay: as above
T2 sequence: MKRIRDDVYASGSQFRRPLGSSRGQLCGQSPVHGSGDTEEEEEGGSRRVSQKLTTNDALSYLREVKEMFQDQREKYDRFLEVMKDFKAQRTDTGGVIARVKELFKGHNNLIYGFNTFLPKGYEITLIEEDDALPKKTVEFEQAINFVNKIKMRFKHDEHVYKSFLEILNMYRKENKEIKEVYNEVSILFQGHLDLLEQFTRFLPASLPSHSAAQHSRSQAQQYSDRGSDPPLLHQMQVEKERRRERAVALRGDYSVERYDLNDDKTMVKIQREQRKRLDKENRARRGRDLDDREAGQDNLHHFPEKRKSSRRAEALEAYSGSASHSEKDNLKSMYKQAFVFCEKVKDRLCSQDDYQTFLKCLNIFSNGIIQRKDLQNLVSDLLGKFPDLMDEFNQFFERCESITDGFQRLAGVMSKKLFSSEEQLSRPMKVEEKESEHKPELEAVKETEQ

[4] = target: T3, SNL2-PAH (aa 1–430), fused to the C-terminal half of luciferase (cLUC) (Arabidopsis thaliana) (UniProt Q9LFQ3); assay: as above
T3 sequence: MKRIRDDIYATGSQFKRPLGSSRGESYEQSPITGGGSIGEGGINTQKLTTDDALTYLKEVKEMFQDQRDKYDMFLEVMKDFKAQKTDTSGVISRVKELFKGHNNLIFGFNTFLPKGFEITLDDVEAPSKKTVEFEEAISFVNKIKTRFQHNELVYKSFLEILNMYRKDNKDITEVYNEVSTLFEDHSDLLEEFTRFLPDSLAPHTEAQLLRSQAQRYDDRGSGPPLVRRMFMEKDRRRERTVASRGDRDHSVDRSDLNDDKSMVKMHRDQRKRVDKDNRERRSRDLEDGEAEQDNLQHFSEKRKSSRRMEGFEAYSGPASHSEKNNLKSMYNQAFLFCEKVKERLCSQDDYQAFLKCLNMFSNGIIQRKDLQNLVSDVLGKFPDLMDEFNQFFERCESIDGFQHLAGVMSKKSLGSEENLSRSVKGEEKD

[5] = target: SNL5-PAH (aa 1–250), fused to the C-terminal half of luciferase (cLUC) (Arabidopsis thaliana) (UniProt Q9XIE1); assay: as above
[6] = target: SNL6, intact, fused to the C-terminal half of luciferase (cLUC) (Arabidopsis thaliana) (UniProt Q9XIK6); assay: as above

Measured: binding

B1: VAL1 (VIVIPAROUS1/ABSCISIC ACID …3-LIKE1), full length, fused to the GAL4 activating domain (protein, UniProt Q8W4L5 1-790)
chain: MFEVKMGSKMCMNASCGTTSTVEWKKGWPLRSGLLADLCYRCGSAYESSLFCEQFHKDQSGWRECYLCSKRLHCGCIASKVTIELMDYGGVGCSTCACCHQLNLNTRGENPGVFSRLPMKTLADRQHVNGESGGRNEGDLFSQPLVMGGDKREEFMPHRGFGKLMSPESTTTGHRLDAAGEMHESSPLQPSLNMGLAVNPFSPSFATEAVEGMKHISPSQSNMVHCSASNILQKPSRPAISTPPVASKSAQARIGRPPVEGRGRGHLLPRYWPKYTDKEVQQISGNLNLNIVPLFEKTLSASDAGRIGRLVLPKACAEAYFPPISQSEGIPLKIQDVRGREWTFQFRYWPNNNSRMYVLEGVTPCIQSMMLQAGDTVTFSRVDPGGKLIMGSRKAANAGDMQGCGLTNGTSTEDTSSSGVTENPPSINGSSCISLIPKELNGMPENLNSETNGGRIGDDPTRVKEKKRTRTIGAKNKRLLLHSEESMELRLTWEEAQDLLRPSPSVKPTIVVIEEQEIEEYDEPPVFGKRTIVTTKPSGEQERWATCDDCSKWRRLPVDALLSFKWTCIDNVWDVSRCSCSAPEESLKELENVLKVGREHKKRRTGESQAAKSQQEPCGLDALASAAVLGDTIGEPEVATTTRHPRHRAGCSCIVCIQPPSGKGRHKPTCGCTVCSTVKRRFKTLMMRRKKKQLERDVTAAEDKKKKDMELAESDKSKEEKEVNTARIDLNSDPYNKEDVEAVAVEKEESRKRAIGQCSGVVAQDASDVLGVTELEGEGKNVREEPRVSS
binds: [1]

B2: VAL1, intact, fused to the N-terminal half of luciferase (nLUC) (protein, UniProt Q8W4L5 1-790)
chain: MFEVKMGSKMCMNASCGTTSTVEWKKGWPLRSGLLADLCYRCGSAYESSLFCEQFHKDQSGWRECYLCSKRLHCGCIASKVTIELMDYGGVGCSTCACCHQLNLNTRGENPGVFSRLPMKTLADRQHVNGESGGRNEGDLFSQPLVMGGDKREEFMPHRGFGKLMSPESTTTGHRLDAAGEMHESSPLQPSLNMGLAVNPFSPSFATEAVEGMKHISPSQSNMVHCSASNILQKPSRPAISTPPVASKSAQARIGRPPVEGRGRGHLLPRYWPKYTDKEVQQISGNLNLNIVPLFEKTLSASDAGRIGRLVLPKACAEAYFPPISQSEGIPLKIQDVRGREWTFQFRYWPNNNSRMYVLEGVTPCIQSMMLQAGDTVTFSRVDPGGKLIMGSRKAANAGDMQGCGLTNGTSTEDTSSSGVTENPPSINGSSCISLIPKELNGMPENLNSETNGGRIGDDPTRVKEKKRTRTIGAKNKRLLLHSEESMELRLTWEEAQDLLRPSPSVKPTIVVIEEQEIEEYDEPPVFGKRTIVTTKPSGEQERWATCDDCSKWRRLPVDALLSFKWTCIDNVWDVSRCSCSAPEESLKELENVLKVGREHKKRRTGESQAAKSQQEPCGLDALASAAVLGDTIGEPEVATTTRHPRHRAGCSCIVCIQPPSGKGRHKPTCGCTVCSTVKRRFKTLMMRRKKKQLERDVTAAEDKKKKDMELAESDKSKEEKEVNTARIDLNSDPYNKEDVEAVAVEKEESRKRAIGQCSGVVAQDASDVLGVTELEGEGKNVREEPRVSS
not listed: [1]
binds: all other assays above

B3: VAL1-CW (aa 458–673), fused to the N-terminal half of luciferase (nLUC) (domain or fragment, UniProt Q8W4L5 458-673)
chain: DDPTRVKEKKRTRTIGAKNKRLLLHSEESMELRLTWEEAQDLLRPSPSVKPTIVVIEEQEIEEYDEPPVFGKRTIVTTKPSGEQERWATCDDCSKWRRLPVDALLSFKWTCIDNVWDVSRCSCSAPEESLKELENVLKVGREHKKRRTGESQAAKSQQEPCGLDALASAAVLGDTIGEPEVATTTRHPRHRAGCSCIVCIQPPSGKGRHKPTCGCT
not listed: [1]
binds: all other assays above
